Reference: article PMC12488962
These are yes or no findings as the source states them, for the method shown. In cells and extracts the contact can be indirect. Some results given as binding are weak or reduced against the parent protein; the word gives no strength. For some assays here: Where a sequence is shown, tags or fusion partners need not be part of it.

The chains behind the UniProt entries cited, without tags or fusion partners.
UniProt P15307: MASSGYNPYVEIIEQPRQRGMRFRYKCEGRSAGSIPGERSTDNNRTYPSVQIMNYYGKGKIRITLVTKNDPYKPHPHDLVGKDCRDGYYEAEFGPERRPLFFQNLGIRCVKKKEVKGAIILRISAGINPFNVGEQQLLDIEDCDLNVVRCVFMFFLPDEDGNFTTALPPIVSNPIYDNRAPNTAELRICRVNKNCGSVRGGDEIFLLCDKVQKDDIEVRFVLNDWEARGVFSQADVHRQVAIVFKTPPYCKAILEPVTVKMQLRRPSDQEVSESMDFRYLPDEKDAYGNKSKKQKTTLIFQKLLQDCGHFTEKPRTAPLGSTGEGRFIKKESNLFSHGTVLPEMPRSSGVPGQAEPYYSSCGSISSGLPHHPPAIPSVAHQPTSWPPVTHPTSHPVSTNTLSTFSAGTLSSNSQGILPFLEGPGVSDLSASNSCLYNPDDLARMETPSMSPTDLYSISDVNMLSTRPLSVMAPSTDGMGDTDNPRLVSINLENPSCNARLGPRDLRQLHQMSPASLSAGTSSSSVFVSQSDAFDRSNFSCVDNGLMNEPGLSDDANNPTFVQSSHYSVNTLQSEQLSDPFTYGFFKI

What was measured:
[1] = target: T1, sialin, endogenous in macrophages (mouse (endogenous in Raw264.7)) (UniProt Q8BN82); assay: proximity ligation; Raw264.7 cells, Duolink In Situ Detection Reagents Red, Anti-Mouse MINUS and Anti-Rabbit PLUS probes, confocal imaging
T1 sequence: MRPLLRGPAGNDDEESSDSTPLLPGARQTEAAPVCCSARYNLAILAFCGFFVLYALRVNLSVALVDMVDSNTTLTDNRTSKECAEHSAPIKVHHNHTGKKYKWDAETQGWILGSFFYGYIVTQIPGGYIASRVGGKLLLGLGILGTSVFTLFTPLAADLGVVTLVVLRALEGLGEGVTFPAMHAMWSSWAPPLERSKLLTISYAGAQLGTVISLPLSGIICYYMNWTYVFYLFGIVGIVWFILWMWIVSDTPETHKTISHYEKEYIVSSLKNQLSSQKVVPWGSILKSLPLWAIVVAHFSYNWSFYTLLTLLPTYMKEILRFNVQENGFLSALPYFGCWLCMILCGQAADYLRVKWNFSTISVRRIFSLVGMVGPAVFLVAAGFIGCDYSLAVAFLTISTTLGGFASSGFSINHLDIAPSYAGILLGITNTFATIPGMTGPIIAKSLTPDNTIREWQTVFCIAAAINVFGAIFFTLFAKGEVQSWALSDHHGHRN

[2] = target: Rel (c-Rel, proto-oncogene Rel) (mouse (endogenous in Raw264.7)) (UniProt P15307); assay: co-IP; cell lysate in modified RIPA buffer, precleared with protein G beads, anti-Rel mouse monoclonal antibody (sc-6955X) overnight, protein G beads, three washes with RIPA buffer, SDS-PAGE and blot

Row | Molecule | binding [1] | binding [2]
1 | Rel (c-Rel, proto-oncogene Rel) (from UniProt P15307 1-587) | binds | –
2 | His-Slc17a5 (sialin), stably overexpressed in Raw264.7 macrophages (protein, UniProt Q8BN82 1-495) MRPLLRGPAGNDDEESSDSTPLLPGARQTEAAPVCCSARYNLAILAFCGFFVLYALRVNLSVALVDMVDSNTTLTDNRTSKECAEHSAPIKVHHNHTGKKYKWDAETQGWILGSFFYGYIVTQIPGGYIASRVGGKLLLGLGILGTSVFTLFTPLAADLGVVTLVVLRALEGLGEGVTFPAMHAMWSSWAPPLERSKLLTISYAGAQLGTVISLPLSGIICYYMNWTYVFYLFGIVGIVWFILWMWIVSDTPETHKTISHYEKEYIVSSLKNQLSSQKVVPWGSILKSLPLWAIVVAHFSYNWSFYTLLTLLPTYMKEILRFNVQENGFLSALPYFGCWLCMILCGQAADYLRVKWNFSTISVRRIFSLVGMVGPAVFLVAAGFIGCDYSLAVAFLTISTTLGGFASSGFSINHLDIAPSYAGILLGITNTFATIPGMTGPIIAKSLTPDNTIREWQTVFCIAAAINVFGAIFFTLFAKGEVQSWALSDHHGHRN | – | binds
